Taken from: PubChem BioAssay AID1259308 (NCATS, 2017)
Here is one part, drawn at random, of about 59,000 reagents tested. In the full data, about 1,510 (2.6%) were called active. 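Calls use total luciferase alone and ignore viability, so some active siRNAs may act by altering cell number.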 The numbers tell different reagents against one gene apart. Not all columns of the deposit are shown. No sequences are given here.

- Purpose: 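Candidate targets for better recombinant protein yield in mammalian cells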 (primary screen)
- Cells: human HEK293 embryonic kidney cells stably expressing firefly luciferase (HEK-CMV-Luc2-Hygro)
- Reagents: single siRNA against human genes, 0.8 pmol siRNA per well
- Time to read-out: 72 h
- Read-out: 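Luciferase light (ONE-Glo) measured on one replicate plate set and viability (CellTiter-Glo) on the other, scaled to a negative control siRNA, with robust z-scores and luciferase per cell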
- Reading the numbers: total luciferase, z-score and total luciferase, % of control: higher = more reporter protein produced
- Active means: 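Active when the median/MAD z-score for overall luciferase is greater than 3; a gene was taken forward for validation with new siRNAs if at least two of its three siRNAs passed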
- Calls: active = raised luciferase; inactive = no rise

Which result is listed for ZKSCAN3 #1?
total luciferase, z-score: 0.0795; total luciferase, % of control: 83.5; Outcome: inactive

How did the screen score ZKSCAN3 #2?
total luciferase, z-score: -0.523; total luciferase, % of control: 71.5; Outcome: inactive

What is on record for ZKSCAN3 #3?
total luciferase, z-score: 0.561; total luciferase, % of control: 93; Outcome: inactive

For PLGLB2 #1, how do the results read?
total luciferase, z-score: 0.449; total luciferase, % of control: 90.8; Outcome: inactive

What did the screen give for PLGLB2 #2?
total luciferase, z-score: -0.704; total luciferase, % of control: 67.9; Outcome: inactive

How did the screen score PLGLB2 #3?
total luciferase, z-score: 1.28; total luciferase, % of control: 107; Outcome: inactive

With KLF4 #1, what was measured?
total luciferase, z-score: 0.934; total luciferase, % of control: 100; Outcome: inactive

What did the screen give for KLF4 #2?
total luciferase, z-score: 0.0568; total luciferase, % of control: 83; Outcome: inactive

What is on record for KLF4 #3?
total luciferase, z-score: 0.363; total luciferase, % of control: 89.1; Outcome: inactive

How did the screen score SOX14 #1?
total luciferase, z-score: -1.91; total luciferase, % of control: 43.8; Outcome: inactive

What is on record for SOX14 #2?
total luciferase, z-score: 0.776; total luciferase, % of control: 97.3; Outcome: inactive

With SOX14 #3, what was measured?
total luciferase, z-score: 1.25; total luciferase, % of control: 107; Outcome: inactive

With NOL12 #1, what was measured?
total luciferase, z-score: 0.828; total luciferase, % of control: 98.4; Outcome: inactive

For NOL12 #2, how do the results read?
total luciferase, z-score: -0.148; total luciferase, % of control: 78.9; Outcome: inactive

Which result is listed for NOL12 #3?
total luciferase, z-score: 0.824; total luciferase, % of control: 98.3; Outcome: inactive

For KRTAP4-1 #1, what does the deposit list?
total luciferase, z-score: -0.172; total luciferase, % of control: 78.5; Outcome: inactive

With KRTAP4-1 #2, what does the deposit list?
total luciferase, z-score: 0.509; total luciferase, % of control: 92; Outcome: inactive

How did the screen score KRTAP4-1 #3?
total luciferase, z-score: -0.388; total luciferase, % of control: 74.2; Outcome: inactive

Ordered by “total luciferase, % of control” (lowest first): some entries from above
KLF4 #2 | total luciferase, z-score: 0.0568; total luciferase, % of control: 83; Outcome: inactive
KLF4 #3 | total luciferase, z-score: 0.363; total luciferase, % of control: 89.1; Outcome: inactive
KLF4 #1 | total luciferase, z-score: 0.934; total luciferase, % of control: 100; Outcome: inactive
PLGLB2 #3 | total luciferase, z-score: 1.28; total luciferase, % of control: 107; Outcome: inactive

The list goes on.
What did the screen give for SHISA5P1 #1?
total luciferase, z-score: 1.56; total luciferase, % of control: 113; Outcome: inactive

For SHISA5P1 #2, what was measured?
total luciferase, z-score: 0.603; total luciferase, % of control: 93.9; Outcome: inactive

For SHISA5P1 #3, what was measured?
total luciferase, z-score: -0.388; total luciferase, % of control: 74.2; Outcome: inactive

For PTPN11 #1, how do the results read?
total luciferase, z-score: -1.37; total luciferase, % of control: 54.6; Outcome: inactive

For PTPN11 #2, what does the deposit list?
total luciferase, z-score: -0.879; total luciferase, % of control: 64.4; Outcome: inactive

With PTPN11 #3, what does the deposit list?
total luciferase, z-score: 0.583; total luciferase, % of control: 93.5; Outcome: inactive

What did the screen give for HLA-DQA2 #1?
total luciferase, z-score: -1.23; total luciferase, % of control: 57.4; Outcome: inactive

For HLA-DQA2 #2, how do the results read?
total luciferase, z-score: 0.419; total luciferase, % of control: 90.2; Outcome: inactive

With HLA-DQA2 #3, what was measured?
total luciferase, z-score: 1.08; total luciferase, % of control: 103; Outcome: inactive

For PDE4DIP #1, how do the results read?
total luciferase, z-score: -1.16; total luciferase, % of control: 58.8; Outcome: inactive

For PDE4DIP #2, how do the results read?
total luciferase, z-score: 0.0548; total luciferase, % of control: 83; Outcome: inactive

What did the screen give for PDE4DIP #3?
total luciferase, z-score: 1.93; total luciferase, % of control: 120; Outcome: inactive

For MED11 #1, how do the results read?
total luciferase, z-score: -1.68; total luciferase, % of control: 48.4; Outcome: inactive

What did the screen give for MED11 #2?
total luciferase, z-score: -0.124; total luciferase, % of control: 79.4; Outcome: inactive

What did the screen give for MED11 #3?
total luciferase, z-score: 0.367; total luciferase, % of control: 89.2; Outcome: inactive

For FLRT1 #1, what does the deposit list?
total luciferase, z-score: 7.48; total luciferase, % of control: 231; Outcome: active

For FLRT1 #2, what does the deposit list?
total luciferase, z-score: 0.00139; total luciferase, % of control: 81.9; Outcome: inactive

With FLRT1 #3, how do the results read?
total luciferase, z-score: 0.566; total luciferase, % of control: 93.1; Outcome: inactive

How did the screen score ITGB7 #1?
total luciferase, z-score: 1.8; total luciferase, % of control: 118; Outcome: inactive

With ITGB7 #2, what was measured?
total luciferase, z-score: 0.17; total luciferase, % of control: 85.3; Outcome: inactive

What is on record for ITGB7 #3?
total luciferase, z-score: 0.54; total luciferase, % of control: 92.6; Outcome: inactive

For MECR #1, how do the results read?
total luciferase, z-score: 0.516; total luciferase, % of control: 92.1; Outcome: inactive

For MECR #2, what was measured?
total luciferase, z-score: -0.542; total luciferase, % of control: 71.1; Outcome: inactive

What did the screen give for MECR #3?
total luciferase, z-score: 1.06; total luciferase, % of control: 103; Outcome: inactive
